# These are yes or no findings as the source states them, for the method shown. Binding seen in cells or lysates may run through a third protein. A yes stands for co-enrichment or nearness to the bait. Other partners may have been found.
# By UniProt entry, the sequences of proteins in these tests, tags left out. Residues count along the entry.
# UniProt P08195, residues 99-630: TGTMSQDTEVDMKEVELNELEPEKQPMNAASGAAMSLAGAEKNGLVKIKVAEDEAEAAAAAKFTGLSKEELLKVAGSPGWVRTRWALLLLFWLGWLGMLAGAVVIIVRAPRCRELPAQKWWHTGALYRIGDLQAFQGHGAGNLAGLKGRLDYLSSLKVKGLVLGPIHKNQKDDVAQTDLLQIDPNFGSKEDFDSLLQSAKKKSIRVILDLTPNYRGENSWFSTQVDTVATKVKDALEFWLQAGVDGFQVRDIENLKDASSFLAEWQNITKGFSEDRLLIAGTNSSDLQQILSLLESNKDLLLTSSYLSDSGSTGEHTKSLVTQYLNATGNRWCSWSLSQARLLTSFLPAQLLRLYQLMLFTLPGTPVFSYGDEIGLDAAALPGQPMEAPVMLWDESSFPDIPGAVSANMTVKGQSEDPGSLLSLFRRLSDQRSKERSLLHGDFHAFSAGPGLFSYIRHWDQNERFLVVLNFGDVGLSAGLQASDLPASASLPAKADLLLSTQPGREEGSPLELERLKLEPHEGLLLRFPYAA
# Target: 4F2hc wildtype, overexpressed from plasmid (SLC3A2^OE) (human) (UniProt P08195)
# Test: affinity purification with mass spectrometry; immunoprecipitation by the 4F2hc antibody from SLC3A2 overexpressed PANC-1 cells, then LC-MS/MS (IP-LC-MS/MS)
binder,measurement,value
"glycosyltransferase B3GNT3, endogenous (enzyme, UniProt Q9Y2A9 1-372) MKYLRHRRPNATLILAIGAFTLLLFSLLVSPPTCKVQEQPPAIPEALAWPTPPTRPAPAPCHANTSMVTHPDFATQPQHVQNFLLYRHCRHFPLLQDVPPSKCAQPVFLLLVIKSSPSNYVRRELLRRTWGRERKVRGLQLRLLFLVGTASNPHEARKVNRLLELEAQTHGDILQWDFHDSFFNLTLKQVLFLQWQETRCANASFVLNGDDDVFAHTDNMVFYLQDHDPGRHLFVGQLIQNVGPIRAFWSKYYVPEVVTQNERYPPYCGGGGFLLSRFTAAALRRAAHVLDIFPIDDVFLGMCLELEGLKPASHSGIRTSGVRAPSQRLSSFDPCFYRDLLLVHRFLPYEMLLMWDALNQPNLTCGNQTQIY",binding,binds

# Reference: publication PMC10406883
